Test results reported in article PMC8401035 (Molecules, 2021).

Assay: general procedure: Fmoc solid-phase peptide synthesis; Rink amide MBHA resin (~0.5 mmol/g); DIC/6-Cl-HOBt or HBTU/NMM
Settings: whole synthesis, scale 0.25 mmol
“HSDGIFTDSY10SRYRKQÑAVK20KYL-Ser(Glc)-Ser(Glc)-CONH2” showed an isolated yield of 0.9%.
Substance “HSDGIFTDSY10SRYRKQÑAVK20KYL-Ser(OH)-CONH2” has an isolated yield of 3.6%.
For “HSDAIFTDSY10SRYRKQÑAVK20KYL-Ser(Lac)-CONH2”, the isolated yield was 2.5%.
“HSDGIFTDSY10SRYRKQÑAVK20KYL-Ser(Lac)-CONH2” gave an isolated yield of 4.5%.
Substance “HSDGIFTDSY10SRYRKQÑAVK20KYL-Ser(Glc)-CONH2” has an isolated yield of 3.1%.
With “HSD∑IFTDSY10SRYRKQÑAVK20KYL-Ser(Lac)-CONH2” the isolated yield was 3.9%.
